Results are given in words; binding and its absence hold for the method and conditions named. In cells and extracts the contact can be indirect. Here binding means that the protein was enriched with, or labelled near, the bait; the list need not be complete.
Molecular target: TurboID-V5-TYK2 (human) (UniProt P29597)
Assay: proximity labelling

Amino acid sequences for entries named in this document (tags omitted).
UniProt P29597: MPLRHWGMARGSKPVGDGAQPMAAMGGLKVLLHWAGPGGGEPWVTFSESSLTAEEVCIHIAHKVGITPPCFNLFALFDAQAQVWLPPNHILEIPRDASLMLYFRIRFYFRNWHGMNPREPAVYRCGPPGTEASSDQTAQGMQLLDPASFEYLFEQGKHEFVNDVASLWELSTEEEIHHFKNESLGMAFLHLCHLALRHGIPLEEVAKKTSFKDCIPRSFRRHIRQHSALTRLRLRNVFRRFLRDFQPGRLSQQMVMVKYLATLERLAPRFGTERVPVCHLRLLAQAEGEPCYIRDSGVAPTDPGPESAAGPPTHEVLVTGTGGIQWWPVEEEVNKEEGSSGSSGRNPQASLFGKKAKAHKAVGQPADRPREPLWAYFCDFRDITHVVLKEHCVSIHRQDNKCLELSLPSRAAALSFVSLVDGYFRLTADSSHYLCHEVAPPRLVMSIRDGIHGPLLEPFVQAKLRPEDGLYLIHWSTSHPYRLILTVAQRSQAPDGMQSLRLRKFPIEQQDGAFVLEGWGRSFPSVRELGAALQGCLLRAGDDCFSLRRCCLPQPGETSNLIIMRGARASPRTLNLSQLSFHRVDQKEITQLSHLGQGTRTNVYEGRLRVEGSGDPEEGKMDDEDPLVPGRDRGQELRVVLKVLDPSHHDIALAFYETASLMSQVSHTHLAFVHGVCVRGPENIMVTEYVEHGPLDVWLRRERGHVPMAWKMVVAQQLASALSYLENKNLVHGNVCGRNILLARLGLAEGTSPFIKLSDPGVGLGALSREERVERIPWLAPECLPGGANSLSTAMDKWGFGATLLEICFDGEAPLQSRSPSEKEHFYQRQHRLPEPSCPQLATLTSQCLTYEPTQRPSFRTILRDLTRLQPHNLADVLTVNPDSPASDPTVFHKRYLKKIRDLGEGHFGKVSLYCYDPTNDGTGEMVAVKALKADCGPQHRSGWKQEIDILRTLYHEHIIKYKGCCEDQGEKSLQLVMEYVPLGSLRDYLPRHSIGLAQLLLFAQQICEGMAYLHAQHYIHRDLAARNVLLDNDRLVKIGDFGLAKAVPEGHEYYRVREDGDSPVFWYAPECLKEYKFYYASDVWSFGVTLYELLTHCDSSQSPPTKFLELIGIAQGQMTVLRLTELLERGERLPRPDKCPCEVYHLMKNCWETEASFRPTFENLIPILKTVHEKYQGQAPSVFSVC

Row | Substance | binding
1 | TurboID-V5-STAT1 (from UniProt P42224-1 1-750) | binds
2 | TurboID-V5-STAT2 (from UniProt P52630-3 1-851) | binds
